For some of these results: Shown are results outside the selection of hits, which stands elsewhere. Inconclusive results are not listed. A structure can be active in one record and inactive in another. The list shows a part of the results, in another mix than the full data. The source made the active and inactive calls. How the source made its calls, unless noted: active means hit-call score of the fitted dose curve at least 0.9, where 1 is the maximum; inconclusive means response in the unintended direction; inactive means score below 0.9.
How the values were obtained:
[1] = target: Retinoic acid receptor RXR-alpha (Homo sapiens) (UniProt P19793); test: OT_NURR1_NURR1RXRa_0480: Odyssey Thera (OT) 8-hour HEK293T Protein Complementation Assay for Nurr1/retinoid X receptor (RXR) (AID 2283385)
Summary of the method: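 Gain in fluorescent complementation signal over DMSO, measured 8 hours after chemical dosing of human kidney HEK293T cells, indicated enhanced Nurr1–RXRα association.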

By UniProt entry, the sequences of proteins in these tests, tags left out. Where a name states a change or a piece, a line headed by the entry shows the natural chain unless it says otherwise.
UniProt P19793: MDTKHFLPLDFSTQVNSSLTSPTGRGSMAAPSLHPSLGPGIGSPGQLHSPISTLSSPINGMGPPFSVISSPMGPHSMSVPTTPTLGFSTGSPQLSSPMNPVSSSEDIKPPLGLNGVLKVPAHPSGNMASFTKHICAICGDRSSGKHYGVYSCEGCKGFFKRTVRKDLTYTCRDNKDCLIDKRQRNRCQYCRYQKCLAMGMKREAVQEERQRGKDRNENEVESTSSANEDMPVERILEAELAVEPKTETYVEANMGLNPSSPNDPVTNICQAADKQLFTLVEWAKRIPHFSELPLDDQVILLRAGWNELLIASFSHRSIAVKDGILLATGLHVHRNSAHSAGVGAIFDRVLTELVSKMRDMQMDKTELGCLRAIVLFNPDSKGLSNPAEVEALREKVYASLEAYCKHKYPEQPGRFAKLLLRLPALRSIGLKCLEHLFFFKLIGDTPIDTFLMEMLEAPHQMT
UniProt P57717: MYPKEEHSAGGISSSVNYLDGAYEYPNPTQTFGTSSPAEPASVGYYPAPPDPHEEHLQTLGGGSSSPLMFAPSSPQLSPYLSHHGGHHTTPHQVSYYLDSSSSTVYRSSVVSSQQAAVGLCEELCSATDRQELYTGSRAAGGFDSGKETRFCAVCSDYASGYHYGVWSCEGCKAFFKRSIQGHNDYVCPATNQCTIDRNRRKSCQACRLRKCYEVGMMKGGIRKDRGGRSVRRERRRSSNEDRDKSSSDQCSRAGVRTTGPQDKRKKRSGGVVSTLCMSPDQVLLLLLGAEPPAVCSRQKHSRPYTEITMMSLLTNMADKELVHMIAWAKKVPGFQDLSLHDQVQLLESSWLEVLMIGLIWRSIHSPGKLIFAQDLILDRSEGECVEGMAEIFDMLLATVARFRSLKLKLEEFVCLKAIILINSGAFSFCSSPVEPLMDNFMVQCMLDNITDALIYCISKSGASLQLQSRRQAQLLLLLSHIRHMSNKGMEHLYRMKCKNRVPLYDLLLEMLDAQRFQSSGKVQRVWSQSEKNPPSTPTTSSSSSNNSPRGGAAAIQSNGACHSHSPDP
UniProt P06401: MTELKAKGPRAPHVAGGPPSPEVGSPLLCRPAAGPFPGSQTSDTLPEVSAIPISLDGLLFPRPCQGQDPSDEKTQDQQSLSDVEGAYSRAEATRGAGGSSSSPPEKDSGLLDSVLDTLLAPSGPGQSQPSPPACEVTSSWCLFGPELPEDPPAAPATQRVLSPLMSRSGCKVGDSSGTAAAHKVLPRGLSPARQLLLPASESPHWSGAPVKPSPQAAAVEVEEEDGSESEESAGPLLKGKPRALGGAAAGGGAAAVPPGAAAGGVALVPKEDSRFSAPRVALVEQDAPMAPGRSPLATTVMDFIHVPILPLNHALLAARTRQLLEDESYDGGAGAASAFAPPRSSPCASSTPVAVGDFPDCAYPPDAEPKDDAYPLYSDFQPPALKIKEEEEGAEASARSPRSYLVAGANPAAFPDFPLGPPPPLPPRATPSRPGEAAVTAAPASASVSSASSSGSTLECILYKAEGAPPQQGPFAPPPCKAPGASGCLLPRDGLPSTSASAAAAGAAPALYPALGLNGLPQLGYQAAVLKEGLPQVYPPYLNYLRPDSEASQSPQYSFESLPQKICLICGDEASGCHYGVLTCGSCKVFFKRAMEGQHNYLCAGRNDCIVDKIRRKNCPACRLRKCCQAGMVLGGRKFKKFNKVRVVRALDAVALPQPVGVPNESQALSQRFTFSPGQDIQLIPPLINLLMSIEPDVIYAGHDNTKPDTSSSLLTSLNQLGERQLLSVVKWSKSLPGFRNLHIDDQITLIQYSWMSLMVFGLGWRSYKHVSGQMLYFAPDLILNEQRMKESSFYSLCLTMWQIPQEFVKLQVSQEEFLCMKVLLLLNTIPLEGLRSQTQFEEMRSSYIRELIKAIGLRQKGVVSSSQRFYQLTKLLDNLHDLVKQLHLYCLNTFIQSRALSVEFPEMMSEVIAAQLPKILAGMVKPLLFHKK
UniProt P04637, whole entry, looked up: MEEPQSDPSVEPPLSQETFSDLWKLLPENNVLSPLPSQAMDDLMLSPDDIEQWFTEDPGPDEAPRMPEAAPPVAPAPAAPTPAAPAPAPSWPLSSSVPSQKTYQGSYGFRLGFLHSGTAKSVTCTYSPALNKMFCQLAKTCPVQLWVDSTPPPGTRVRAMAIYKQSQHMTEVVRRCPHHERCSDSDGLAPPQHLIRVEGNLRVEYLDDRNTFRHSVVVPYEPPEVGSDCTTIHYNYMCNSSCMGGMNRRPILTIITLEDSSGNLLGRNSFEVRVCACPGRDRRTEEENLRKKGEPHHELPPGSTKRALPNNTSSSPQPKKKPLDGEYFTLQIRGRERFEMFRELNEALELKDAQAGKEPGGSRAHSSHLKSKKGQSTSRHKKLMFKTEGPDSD
UniProt Q96RI1: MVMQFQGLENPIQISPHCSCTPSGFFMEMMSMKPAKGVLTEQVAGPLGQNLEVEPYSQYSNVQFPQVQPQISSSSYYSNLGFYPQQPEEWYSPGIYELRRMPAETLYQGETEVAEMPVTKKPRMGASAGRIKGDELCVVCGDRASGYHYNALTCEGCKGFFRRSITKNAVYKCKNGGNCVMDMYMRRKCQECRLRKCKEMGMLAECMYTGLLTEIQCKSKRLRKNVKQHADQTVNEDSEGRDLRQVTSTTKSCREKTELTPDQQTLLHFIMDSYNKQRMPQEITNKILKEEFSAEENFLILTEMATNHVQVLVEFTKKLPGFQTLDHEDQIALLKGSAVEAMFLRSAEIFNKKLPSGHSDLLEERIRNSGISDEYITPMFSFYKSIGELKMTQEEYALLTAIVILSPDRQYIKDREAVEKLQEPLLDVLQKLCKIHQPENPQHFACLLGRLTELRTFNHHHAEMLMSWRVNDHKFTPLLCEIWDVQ
UniProt P37231: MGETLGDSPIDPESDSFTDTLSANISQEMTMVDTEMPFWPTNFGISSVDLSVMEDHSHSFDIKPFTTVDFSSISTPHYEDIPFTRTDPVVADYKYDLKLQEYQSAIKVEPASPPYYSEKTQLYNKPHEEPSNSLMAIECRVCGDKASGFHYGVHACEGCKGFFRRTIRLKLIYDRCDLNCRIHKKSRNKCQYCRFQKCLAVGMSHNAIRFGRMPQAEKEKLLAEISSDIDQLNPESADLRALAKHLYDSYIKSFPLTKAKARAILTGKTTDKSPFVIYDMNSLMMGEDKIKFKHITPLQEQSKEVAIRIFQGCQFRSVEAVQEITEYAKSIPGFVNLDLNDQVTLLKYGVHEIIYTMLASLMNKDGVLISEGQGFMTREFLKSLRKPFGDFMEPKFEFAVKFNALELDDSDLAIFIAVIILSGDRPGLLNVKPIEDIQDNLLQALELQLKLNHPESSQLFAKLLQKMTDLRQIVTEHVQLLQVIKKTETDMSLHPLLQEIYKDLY

[2] = CEETOX_H295R_PROG: CeeTox H295R High-throughput Steroidogenesis Assay for Progesterone (PROG) (AID 2283442; active means hit-call score of the fitted dose curve at least 0.9, where 1 is the maximum; inactive means score below 0.9); settings: actives raise or lower the signal
Summary of the method: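 Progesterone read-out: HPLC-MS/MS on MTBE extracts of conditioned medium after 48 h chemical exposure of forskolin-primed (10 uM, 48 h) H295R cells. Gain or loss of signal was fitted relative to DMSO baseline.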

[3] = target: zebrafish Estrogen Receptor (ER1), esr1 (gene 259252) (UniProt P57717); test: ATG_zfER1_XSP2: Attagene TRANS-FACTORIAL Multi-Species (XSP2) HepG2 Assay for zebrafish Estrogen Receptor (ER1) (AID 2283816)
Summary of the method: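 After 24 h compound exposure, RNA from transfected HepG2 cells was reverse-transcribed and reporter transcripts resolved by capillary electrophoresis. The TRANS format reads exogenous zebrafish ER1-Gal4 chimera activity on GAL4-UAS elements; gain of signal against DMSO.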

[4] = target: PGR (gene 5241) (UniProt P06401); test: TOX21_PR_LUC_Followup_Antagonist: Tox21 HEK293 Progesterone Receptor (PR) Antagonism Luciferase Follow-Up Assay (AID 2283938);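 further: curve fitted upward as signal gain over DMSO baseline despite antagonist label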
Summary of the method: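 Luminescence from ONE-Glo reagent, measured after 30 min at room temperature, served as readout. Cells (HEK293 carrying PR-A-luc) had been treated 16 h at 37C with DMSO-dissolved compounds. Activity was fitted against DMSO controls.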

[5] = target: Cellular tumor antigen p53 (Homo sapiens) (UniProt P04637); test: TOX21_p53_BLA_p4_ratio: Tox21 HCT-116 p53 Agonism Beta-lactamase Assay, Ratio, Phase 4 (AID 2283601)
Summary of the method: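 Signal is the blue/green (460nm/530nm) ratio of cleaved versus uncleaved CCF4-AM substrate, read after 2 h substrate loading. Cells were HCT116 carrying the p53-responsive beta-lactamase reporter, dosed 16 h at 37C, 5% CO2; CellTiter-Glo measured in parallel.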

[6] = target: Bile acid receptor (Homo sapiens) (UniProt Q96RI1); test: OT_FXR_FXRSRC1_0480: Odyssey Thera (OT) 8-hour HEK293T Protein-Complementation Assay for Farnesoid X receptor/SRC-1 Co-activator (AID 2283383)
Summary of the method: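 Readings were taken 8 h after dosing HEK293T cells in a split-reporter complementation format pairing FXR with SRC-1. Increased fluorescence relative to DMSO-treated wells defined activity.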

[7] = target: Peroxisome proliferator-activated receptor gamma (Homo sapiens) (UniProt P37231); test: ATG_hPPARg_XSP2: Attagene TRANS-FACTORIAL Multi-Species (XSP2) HepG2 Assay for human Peroxisome Proliferator-activated Receptor gamma (PPARg) (AID 2283829);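 further: actives raise reporter mRNA above DMSO so AC50 reflects PPARg activation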
Summary of the method: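 Transient MRTU transfection, HepG2; TRANS format (exogenous NR-Gal4 chimeras). 24 h chemical exposure with 3 nM 6-alpha-fluorotestosterone and 1.5 nM norgestrel present. Readout: reporter mRNA via RT-PCR/CE fluorescence, up-direction vs DMSO.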

[8] = target: Retinoic acid receptor RXR-alpha (Homo sapiens) (UniProt P19793); test: OT_NURR1_NURR1RXRa_1440: Odyssey Thera (OT) 24-hour HEK293T Protein Complementation Assay for Nurr1/retinoid X receptor (RXR) (AID 2283386)
Summary of the method: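 Cell-based binding reporter: HEK293T cells, 24 h exposure, fluorescence-detected fragment complementation, DMSO as baseline.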

[9] = read-out: Glutathione S-transferase M3 (GSTM3), GSTM3 (gene 2947); test: LTEA_HepaRG_GSTM3: Life Technologies and Expression Analysis (LTEA) Assay for Glutathione S-transferase M3 (GSTM3) using HepaRG (AID 2283501; active means hit-call score of the fitted dose curve at least 0.9, where 1 is the maximum; inactive means score below 0.9); settings: actives raise or lower the signal; mRNA level, 48 h
Summary of the method: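 qRT-PCR read-out of GSTM3 transcript, normalized to three housekeeping genes, from human HepaRG cells after 48 h chemical exposure. Eight-point half-log series, top 100 uM, 0.5% DMSO vehicle; gain or loss fitted relative to DMSO baseline.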

[10] = read-out: catalase (CAT), CAT (gene 847); test: LTEA_HepaRG_CAT: Life Technologies and Expression Analysis (LTEA) Assay for catalase (CAT) using HepaRG (AID 2283452; active means hit-call score of the fitted dose curve at least 0.9, where 1 is the maximum; inactive means score below 0.9;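 further: TaqMan qRT-PCR signal normalized to ACTB GAPDH and POLR2A housekeeping genes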); settings: actives raise or lower the signal; mRNA level, 48 h
Summary of the method: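 Expression of CAT was quantified by TaqMan qRT-PCR with ACTB/GAPDH/POLR2A normalization after 48 h chemical exposure of HepaRG. Eight-point half-log series, top 100 uM, in 0.5% DMSO; gain or loss fitted against vehicle.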

[11] = read-out: Thyroid Hormone Responsive (THRSP), THRSP (gene 7069); test: LTEA_HepaRG_THRSP: Life Technologies and Expression Analysis (LTEA) Assay for Thyroid Hormone Responsive (THRSP) using HepaRG (AID 2283536; active means hit-call score of the fitted dose curve at least 0.9, where 1 is the maximum; inactive means score below 0.9); settings: actives raise or lower the signal; mRNA level, 48 h
Summary of the method: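 THRSP transcript quantified by Fluidigm qRT-PCR against three housekeeping genes after 48 h chemical exposure of HepaRG cells in serum-free induction medium; eight-point half-log series, top 100 uM, 0.5% DMSO vehicle, duplicate wells.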

[12] = read-out: UDP glucuronosyltransferase (UGT1A6), UGT1A6 (gene 54578); test: LTEA_HepaRG_UGT1A6: Life Technologies and Expression Analysis (LTEA) Assay for UDP glucuronosyltransferase (UGT1A6) using HepaRG (AID 2283539; active means hit-call score of the fitted dose curve at least 0.9, where 1 is the maximum; inactive means score below 0.9); settings: actives raise or lower the signal; mRNA level, 48 h
Summary of the method: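 qRT-PCR readout of UGT1A6 mRNA (normalized to ACTB/GAPDH/POLR2A) in differentiated HepaRG cells after 48 h chemical exposure; 8 concentrations, top 100 uM, half-log steps, 0.5% DMSO. Bidirectional curve fit relative to DMSO baseline.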

[13] = ACEA_ER_AUC_viability: ACEA Biosciences xCELLigence Real-Time Cell Analysis on Estrogen Receptor Agonism for Viability (AID 2283782);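 further: hit means loss of impedance signal meaning reduced cell growth or viability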
Summary of the method: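 Viability endpoint: reduced impedance area under the curve relative to DMSO, recorded by real-time electrode sensing over ~80 h of continuous exposure. Duplicate plates of T47D in hormone-depleted medium; eight concentrations, 1:4 dilutions, 100 uM maximum.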

[14] = CEETOX_H295R_OHPROG: CeeTox H295R High-throughput Steroidogenesis Assay for OH-Progesterone (OHPROG) (AID 2283435; active means hit-call score of the fitted dose curve at least 0.9, where 1 is the maximum; inactive means score below 0.9); settings: actives raise or lower the signal
[15] = read-out: solute carrier (SLC22A1), SLC22A1 (gene 6580); test: LTEA_HepaRG_SLC22A1: Life Technologies and Expression Analysis (LTEA) Assay for solute carrier (SLC22A1) using HepaRG (AID 2283524; active means hit-call score of the fitted dose curve at least 0.9, where 1 is the maximum; inactive means score below 0.9); settings: actives raise or lower the signal; mRNA level, 48 h
Summary of the method: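 Transcript level of SLC22A1 quantified by qRT-PCR (normalized to three housekeeping genes) after 48 h chemical exposure of HepaRG cells, eight concentrations up to 100 µM, half-log steps, 0.5% DMSO vehicle. Gain or loss relative to DMSO fitted bidirectionally.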

COC(=O)c1ccccc1C(=O)OC
outcome [1]: inactive

CC(=O)c1cc2c(cc1C)C(C)(C)C(C)CC2(C)C (stereo unspecified)
outcome [2]: inactive
outcome [3]: inactive
AC50 [4]: active: 9.14 µM

Cc1ccc(N=CN(C)C=Nc2ccc(C)cc2C)c(C)c1
AC50 [1]: active: 82.4 µM
outcome [5]: inactive

CC(C)C1CCC(Cc2ccc(Cl)cc2)C1(O)Cn1cncn1 (stereo unspecified)
AC50 [6]: active: 11.1 µM
outcome [7]: inactive

COc1cc(OC)nc(Sc2cccc(Cl)c2C(=O)O)n1
outcome [8]: inactive
outcome [9]: inactive

CC(C)N(C(=O)COc1nnc(C(F)(F)F)s1)c1ccc(F)cc1
AC50 [10]: active: 25.2 µM
outcome [11]: inactive
outcome [12]: inactive
outcome [13]: inactive

COc1cccc(C(=O)NN(C(=O)c2cc(C)cc(C)c2)C(C)(C)C)c1C
outcome [14]: inactive
outcome [15]: inactive
